These are yes or no findings as the source states them, for the method shown. Binding seen in cells or lysates may run through a third protein. Some results given as binding are weak or reduced against the parent protein; the word gives no strength.
How the values were obtained:
[1] = molecular target: SALL4A (pcDNA3-SALL4A) (UniProt Q9UJQ4); test: co-IP; 1 mg nuclear protein of SALL4A- or SALL4B-expressing 293T cells or of D3 mouse ES cells, anti-SALL4 antibody or rabbit IgG at 4°C overnight, protein G beads, washes with 0.1% NP-40, Western blots
[2] = molecular target: T1, SALL4B (pcDNA3-SALL4B) (UniProt Q9UJQ4); test: as above
T1 sequence: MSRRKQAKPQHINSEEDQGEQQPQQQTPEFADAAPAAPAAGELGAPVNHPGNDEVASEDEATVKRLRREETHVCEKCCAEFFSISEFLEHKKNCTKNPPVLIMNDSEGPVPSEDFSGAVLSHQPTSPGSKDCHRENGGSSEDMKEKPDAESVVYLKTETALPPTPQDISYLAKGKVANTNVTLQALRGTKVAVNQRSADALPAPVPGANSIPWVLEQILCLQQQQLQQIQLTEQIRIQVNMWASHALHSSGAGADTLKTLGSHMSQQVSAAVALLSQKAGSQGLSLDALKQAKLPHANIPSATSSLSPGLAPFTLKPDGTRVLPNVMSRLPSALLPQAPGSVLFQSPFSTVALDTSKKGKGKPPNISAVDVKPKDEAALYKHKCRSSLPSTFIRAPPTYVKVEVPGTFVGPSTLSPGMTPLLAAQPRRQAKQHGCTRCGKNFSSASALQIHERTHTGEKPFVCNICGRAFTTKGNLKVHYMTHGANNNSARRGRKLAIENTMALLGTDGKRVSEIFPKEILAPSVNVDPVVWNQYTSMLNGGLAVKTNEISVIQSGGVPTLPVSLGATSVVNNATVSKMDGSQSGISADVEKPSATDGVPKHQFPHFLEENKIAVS

Amino acid sequences for entries named in this document (tags omitted).
UniProt Q13547: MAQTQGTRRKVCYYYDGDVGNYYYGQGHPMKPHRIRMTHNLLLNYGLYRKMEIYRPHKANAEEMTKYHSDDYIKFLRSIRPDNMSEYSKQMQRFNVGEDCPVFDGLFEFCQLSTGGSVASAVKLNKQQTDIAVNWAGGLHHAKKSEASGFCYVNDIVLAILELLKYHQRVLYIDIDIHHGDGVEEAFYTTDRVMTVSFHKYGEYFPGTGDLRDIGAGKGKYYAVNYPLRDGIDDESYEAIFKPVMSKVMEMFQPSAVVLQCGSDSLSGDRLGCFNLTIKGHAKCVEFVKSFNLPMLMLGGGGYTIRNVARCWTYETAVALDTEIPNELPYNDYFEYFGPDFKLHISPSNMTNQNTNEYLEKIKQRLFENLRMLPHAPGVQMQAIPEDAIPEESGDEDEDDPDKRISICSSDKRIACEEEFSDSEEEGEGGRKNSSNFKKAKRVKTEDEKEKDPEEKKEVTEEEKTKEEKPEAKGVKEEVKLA
UniProt Q92769: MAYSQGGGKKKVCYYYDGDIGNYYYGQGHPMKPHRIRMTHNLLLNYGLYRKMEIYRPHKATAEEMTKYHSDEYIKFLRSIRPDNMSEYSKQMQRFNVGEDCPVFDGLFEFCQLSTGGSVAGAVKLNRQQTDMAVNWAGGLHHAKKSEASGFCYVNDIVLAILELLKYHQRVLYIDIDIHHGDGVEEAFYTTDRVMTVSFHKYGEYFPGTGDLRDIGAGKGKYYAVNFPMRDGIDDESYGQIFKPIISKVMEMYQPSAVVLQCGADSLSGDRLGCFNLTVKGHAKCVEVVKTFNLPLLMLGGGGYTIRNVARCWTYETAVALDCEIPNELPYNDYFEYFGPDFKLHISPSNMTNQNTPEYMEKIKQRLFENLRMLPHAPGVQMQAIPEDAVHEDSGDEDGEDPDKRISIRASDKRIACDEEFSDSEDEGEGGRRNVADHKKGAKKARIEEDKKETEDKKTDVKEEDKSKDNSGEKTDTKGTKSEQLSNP
UniProt Q14839: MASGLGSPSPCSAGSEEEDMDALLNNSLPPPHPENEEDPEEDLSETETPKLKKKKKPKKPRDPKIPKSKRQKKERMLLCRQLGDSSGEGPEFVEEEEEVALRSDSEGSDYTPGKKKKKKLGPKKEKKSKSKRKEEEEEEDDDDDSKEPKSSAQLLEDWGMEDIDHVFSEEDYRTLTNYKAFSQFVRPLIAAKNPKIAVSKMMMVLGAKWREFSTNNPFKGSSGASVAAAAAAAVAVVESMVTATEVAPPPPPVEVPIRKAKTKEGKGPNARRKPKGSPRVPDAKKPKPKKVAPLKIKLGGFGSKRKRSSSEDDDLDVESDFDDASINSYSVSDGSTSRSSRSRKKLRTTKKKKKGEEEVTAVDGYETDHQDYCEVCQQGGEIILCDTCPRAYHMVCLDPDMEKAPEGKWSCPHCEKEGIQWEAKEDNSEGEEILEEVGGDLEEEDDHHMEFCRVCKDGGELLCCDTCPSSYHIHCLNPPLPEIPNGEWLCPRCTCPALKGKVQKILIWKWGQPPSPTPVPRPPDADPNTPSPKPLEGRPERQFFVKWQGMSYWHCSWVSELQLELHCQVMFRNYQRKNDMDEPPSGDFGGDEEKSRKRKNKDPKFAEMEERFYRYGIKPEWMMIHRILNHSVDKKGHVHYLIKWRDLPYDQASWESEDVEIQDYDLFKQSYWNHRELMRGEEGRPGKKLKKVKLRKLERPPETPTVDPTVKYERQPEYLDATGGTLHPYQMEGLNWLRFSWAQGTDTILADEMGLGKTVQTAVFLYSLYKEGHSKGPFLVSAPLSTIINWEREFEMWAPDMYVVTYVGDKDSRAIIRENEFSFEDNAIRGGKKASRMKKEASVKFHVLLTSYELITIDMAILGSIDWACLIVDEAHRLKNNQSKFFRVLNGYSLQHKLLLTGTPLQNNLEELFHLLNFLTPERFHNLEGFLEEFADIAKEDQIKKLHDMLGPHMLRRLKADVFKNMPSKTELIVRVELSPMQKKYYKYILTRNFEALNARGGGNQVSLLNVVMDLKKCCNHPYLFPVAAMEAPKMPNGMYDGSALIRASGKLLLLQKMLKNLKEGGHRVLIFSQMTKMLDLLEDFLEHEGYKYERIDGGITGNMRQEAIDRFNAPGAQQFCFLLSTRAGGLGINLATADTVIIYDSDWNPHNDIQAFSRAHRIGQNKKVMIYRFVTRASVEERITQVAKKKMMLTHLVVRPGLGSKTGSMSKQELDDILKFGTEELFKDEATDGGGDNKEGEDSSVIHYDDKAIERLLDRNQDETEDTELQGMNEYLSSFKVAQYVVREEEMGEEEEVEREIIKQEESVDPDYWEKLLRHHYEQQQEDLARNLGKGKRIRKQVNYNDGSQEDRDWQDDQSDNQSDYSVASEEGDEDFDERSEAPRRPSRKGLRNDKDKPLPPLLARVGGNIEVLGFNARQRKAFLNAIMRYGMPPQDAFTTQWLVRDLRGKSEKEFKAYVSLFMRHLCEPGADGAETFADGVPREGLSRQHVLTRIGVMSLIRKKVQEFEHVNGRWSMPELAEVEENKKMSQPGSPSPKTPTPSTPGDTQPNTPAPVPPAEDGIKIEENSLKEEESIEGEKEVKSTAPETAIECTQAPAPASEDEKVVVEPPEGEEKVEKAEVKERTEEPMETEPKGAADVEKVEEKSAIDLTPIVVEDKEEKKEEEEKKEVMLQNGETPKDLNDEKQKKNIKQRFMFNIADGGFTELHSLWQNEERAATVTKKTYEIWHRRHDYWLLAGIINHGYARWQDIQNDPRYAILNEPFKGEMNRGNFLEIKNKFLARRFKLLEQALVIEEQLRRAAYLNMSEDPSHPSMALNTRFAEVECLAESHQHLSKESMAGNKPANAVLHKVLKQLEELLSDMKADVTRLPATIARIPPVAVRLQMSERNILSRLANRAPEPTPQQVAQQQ
UniProt Q09028: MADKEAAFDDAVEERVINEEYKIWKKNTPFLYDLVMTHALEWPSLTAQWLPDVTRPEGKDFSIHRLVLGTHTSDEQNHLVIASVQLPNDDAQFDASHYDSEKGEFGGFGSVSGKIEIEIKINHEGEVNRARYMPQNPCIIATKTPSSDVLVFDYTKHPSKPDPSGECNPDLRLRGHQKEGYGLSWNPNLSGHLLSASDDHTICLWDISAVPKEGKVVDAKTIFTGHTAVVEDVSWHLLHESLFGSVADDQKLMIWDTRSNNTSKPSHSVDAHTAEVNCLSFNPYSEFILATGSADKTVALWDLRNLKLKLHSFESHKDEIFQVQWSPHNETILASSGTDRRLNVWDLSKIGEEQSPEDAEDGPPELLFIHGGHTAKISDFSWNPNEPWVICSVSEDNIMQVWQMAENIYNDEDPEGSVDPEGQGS

[3] = molecular target: T1, SALL4B (pcDNA3-SALL4B); test: co-IP; data not shown; Western blotting of SALL4B-bound proteins

Substance	binding [1]	binding [2]	binding [3]
HDAC1 (from UniProt Q13547 1-482) (enzyme)	binds	–	–
HDAC2 (from UniProt Q92769 1-488) (enzyme)	binds	binds	–
Mi-2β (from UniProt Q14839 1-1912)	binds	–	–
RbAP48 (from UniProt Q09028 1-425)	–	–	binds
